The list shows a part of the results. Values are raw readings; no control value is given beside them.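 First-pass screen: polymyxin B was added at a level that permeabilizes the Salmonella outer membrane while sparing the inner membrane. DMSO wells, with and without polymyxin B, defined maximum growth. Because plates differed from one another, each plate's data were ranked separately and the compounds with the lowest OD600 were carried forward as hits.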
Tested on: Salmonella enterica serovar Typhimurium SL1344
Assay: bacterial growth OD600 after 18 h with compound and polymyxin B; higher = more bacterial growth (less inhibition)
Conditions: 50 µM, Mueller-Hinton broth

Row | Compound | bacterial growth OD600 (polymyxin B 1 µg/mL) | bacterial growth OD600 (polymyxin B 0.75 µg/mL)
1 | COc1cc(CN2CCN(CC3CCCCC3)CC2CCO)cc(OC)c1 (configuration not stated) | 0.757 | –
2 | C=CCNC(=O)c1coc(COc2cccc(F)c2F)n1 | 0.737 | –
3 | COc1cc(=O)n2c(c1C(=O)N(C)Cc1nonc1C)CCN(C(=O)CC1CCCCC1)CC2 | – | 0.977
4 | COC(=O)CNC(=O)CC(c1cccc(Cl)c1)c1ccccc1O (configuration not stated) | 0.858 | –
5 | COCC1CCCN(C(=O)c2coc(COc3ccc(F)cc3Cl)n2)C1 (configuration not stated) | 0.984 | –
6 | Cc1nn(-c2ccccc2)c(C)c1CC(=O)N1CCCC(c2ccncn2)C1 (configuration not stated) | – | 0.768
7 | COc1ccccc1C1(CC(=O)N(C)Cc2ccccc2C(F)(F)F)CC(=O)N(C)C1=O (configuration not stated) | – | 0.79
8 | Cc1nc2sccn2c1CN1CCC2(CC1)CC2C(=O)NCc1ccco1 (configuration not stated) | – | 0.889
9 | CC(CN1CCCC1)CN(C)C(=O)c1csc2nc(-c3ccccc3)cn12 (configuration not stated) | 0.922 | –
10 | OCC1(Cc2ccc(F)cc2)CCCN(C2CCN(CCc3ccccc3)CC2)C1 (configuration not stated) | – | 0.787
11 | CN(CCc1ccccn1)C(=O)CCC1CCCN(C(=O)c2cn3ccsc3n2)C1 (configuration not stated) | 0.891 | –
12 | Cc1ccccc1Oc1ncccc1CNCc1cnn(C)c1 | – | 0.927
13 | CC1=C(C(=O)N2CCC(C(=O)Nc3cccc(-c4nnc(C)s4)c3)CC2)OCCO1 | 0.883 | –
14 | COc1ccc(CN2CCC(C(Cc3ccccc3Cl)N(C)C(=O)c3ccco3)CC2)cc1OC (configuration not stated) | – | 0.884
15 | CN(C)C(=O)CCC(=O)NCc1cccnc1-n1cnc2ccccc21 | 1.06 | –
16 | Cc1ccc(CNCC2(O)CCCN(CC3CCC3)C2=O)cc1F (configuration not stated) | 0.776 | –

Row | Compound | bacterial growth OD600 (polymyxin B 1 µg/mL) | bacterial growth OD600 (polymyxin B 0.75 µg/mL)
17 | O=C1CC(NS(=O)(=O)N2CCCC2)CN1Cc1cccc2ccccc12 (configuration not stated) | 0.947 | –
18 | CCOC(=O)C1(Cc2ccccc2)CCN(Cc2sc(N(C)C)nc2Cl)CC1 | – | 0.751
19 | COc1ccc(C(CC(=O)NCc2ncc[nH]2)c2ccccc2)cc1 (configuration not stated) | 0.799 | –
20 | Cc1ccc(C)c(CN2CCC(n3nccc3NC(=O)C(C)(C)C)CC2)c1 | 0.931 | –
21 | CN(Cc1cccc(Cl)c1)C(=O)c1coc(COc2cccc3cnccc23)n1 | 0.49 | –
22 | CCCOC1CCCN(c2ccc(-c3nc(C4CC4)no3)cn2)C1 (configuration not stated) | 1.09 | –
23 | OCC1(CCOc2ccccc2)CCN(Cc2ccc(OC(F)F)cc2)CC1 | 0.848 | –
24 | CCOC(=O)C1CCN(Cc2cccc(OCC(O)CN3CCCCCC3)c2)CC1 (configuration not stated) | – | 0.932
25 | O=C(c1scc2c1OCCO2)N1CCOC(CCc2ccccc2)C1 (configuration not stated) | – | 0.545
26 | CC(Cc1cccs1)NC(=O)c1cc(Cn2ccnc2C(C)C)[nH]n1 (configuration not stated) | 0.99 | –
27 | Cc1cc(F)ccc1NC(=O)CCC1CCCN(Cc2cccnc2)C1 (configuration not stated) | 0.923 | –
28 | CC(C)(C)C(=O)NC1CCCc2nc(-c3ccccc3)ncc21 (configuration not stated) | 0.92 | –
29 | CCn1cncc1CN1CCC(C2CCN(Cc3ccc(Cl)cc3)C2)CC1 (configuration not stated) | – | 0.807
30 | OCCN1CCN(Cc2ccc3c(c2)CN(CC2CC=CCC2)CCO3)CC1 (configuration not stated) | – | 0.825
31 | Cn1ccnc1C1CCCCN1C(=O)CCc1nnc(CCCc2ccccc2)o1 (configuration not stated) | 0.9 | –
32 | CC#CCN1C(=O)NC(CCc2ccccc2)(C2CCN(Cc3ccc(OC)cc3)CC2)C1=O (configuration not stated) | – | 0.797

Copied from above: compounds 6–14
Row | Compound | bacterial growth OD600 (polymyxin B 1 µg/mL) | bacterial growth OD600 (polymyxin B 0.75 µg/mL)
6 | Cc1nn(-c2ccccc2)c(C)c1CC(=O)N1CCCC(c2ccncn2)C1 (configuration not stated) | – | 0.768
7 | COc1ccccc1C1(CC(=O)N(C)Cc2ccccc2C(F)(F)F)CC(=O)N(C)C1=O (configuration not stated) | – | 0.79
8 | Cc1nc2sccn2c1CN1CCC2(CC1)CC2C(=O)NCc1ccco1 (configuration not stated) | – | 0.889
9 | CC(CN1CCCC1)CN(C)C(=O)c1csc2nc(-c3ccccc3)cn12 (configuration not stated) | 0.922 | –
10 | OCC1(Cc2ccc(F)cc2)CCCN(C2CCN(CCc3ccccc3)CC2)C1 (configuration not stated) | – | 0.787
11 | CN(CCc1ccccn1)C(=O)CCC1CCCN(C(=O)c2cn3ccsc3n2)C1 (configuration not stated) | 0.891 | –
12 | Cc1ccccc1Oc1ncccc1CNCc1cnn(C)c1 | – | 0.927
13 | CC1=C(C(=O)N2CCC(C(=O)Nc3cccc(-c4nnc(C)s4)c3)CC2)OCCO1 | 0.883 | –
14 | COc1ccc(CN2CCC(C(Cc3ccccc3Cl)N(C)C(=O)c3ccco3)CC2)cc1OC (configuration not stated) | – | 0.884

Source: the supplement of paper PMC12889115
